According to US20090123463A1:
Results are given in words; binding and its absence hold for the method and conditions named. Binding calls can cover weak binding; strength is not graded here.

Target: FAT domain of FAK
Assay: phage display

binding: binds
Binder: WHWQWTPWSIQP [Peptide-35 (…; SEQ ID NO: 1)]
